Reference: US20130040331A1, “LABEL-FREE METHODS RELATED TO hERG POTASSIUM ION [sequence]” (CORNING INCORPORATED, priority 2009, published 2013)

Test system: mallotoxin DMR signal in HT29 cells
Assay: DMR modulation index against the mallotoxin DMR signal in HT29 cells
Type: cell-based, human
Conditions: 10% modulation = 1 score unit
Description: A “molecule modulation index” or like terms is an index to display the ability of the molecule to modulate the biosensor output signals of the panels of markers acting on the panel of cells. The modulation index is generated by normalizing a specific biosensor output signal parameter of a response of a cell upon stimulation with a marker in the presence of a molecule against that in the absence of any molecule.
Epic® wavelength interrogation system (Corning Inc., Corning, N.Y.) was used for whole cell sensing. This system consists of a temperature-control unit, an optical detection unit, and an on-board liquid handling unit with robotics. The detection unit is centered on integrated fiber optics, and enables kinetic measures of cellular responses with a time interval of ˜15 sec.
Cells were plated in 384-well Epic® cell culture treated plate (Corning Cat#5040) 16-20 hours before assay (15000 cells/well for HEK293 and HEK-hERG cells, 30000 cells/well for HT29 cells). […] For each assay, a 2-min baseline was initiated, followed by addition of 10 μl compound solutions (5×) and the cell responses were recorded continuously for one hour.
All studies were carried out at a controlled temperature (28° C.). […] All dose-dependent responses were analyzed using non-linear regression method with the GraphPad Prism 5. […]

SMILES | score of modulation index in coordination, HT29 coordinate
O=C(O)c1cc(-c2ccc(F)cc2F)ccc1O [diflunisal] | −9
O=C(O)c1ccccc1Nc1cccc(C(F)(F)F)c1 [flufenamic acid] | −9
